According to US10392371B2, “Compounds useful as modulators of TRPM8” (Senomyx, Inc., priority 2015, dated 2019):

Experiment: Sensory evaluation by quantitative descriptive evaluation technique (ten trained panelists, 15-point linescale)
Assay type: in vivo, human
Set-up: key: the Duncan's levels are reported as Levels A, B, and C; the Duncan's levels are reported as Levels A, B, and C; the Duncan's levels are reported as Levels A, B, and C
Settings: Duncan's multiple comparison level, alpha 5%
Description: Compounds 102-105 and Comparative Compound 1 were evaluated using a quantitative descriptive evaluation technique. Ten panelists participated in the study. These panelists previously underwent extensive training in the use of standardized vocabulary to describe the appearance, aroma, flavor, and texture of a variety of products. Data collection was conducted over a period of seven days, with panelists evaluating two samples on each day of testing. Two evaluations were obtained from each panelist for each compound yielding a total of 20 evaluations per compound. During the data collection, the panelists were give a list of attributes and instructed to indicate the intensity of each attribute by indicating the intensity on a 15-point linescale. The intensity was evaluated for the following time periods: in-mouth, after expectoration, and 30 seconds, 1, 2, 5, 10, 15, 30, 45, and 60 minutes into the aftertaste period.
Compounds 102, 103, and 105 were prepared as 5 μM solutions and Compound 104 and Comparative Compound 1 were prepared in 3 μM solutions. 15 mL aliqouts of the test solutions were administered to Panelists in 1 oz. plastic cups coded with a random 3-digit code. The Panelists refrained from brushing their teeth, eating, and drinking one hour before each evaluation. Mean intensities were calculated based on the Panelists responses for each sensory characteristic. The sensory characteristics evaluated were bitter, icy cool in mouth, numbing, cooling breathe in, total burning, alcohol burning, pepperine/capsaicin, tingling, and total trigeminal impact. For each sensory characteristic, the scale of the intensity was designed to cover a range encompassing the universe of products having the indicated sensory characteristic.
After mean intensities for each attribute were calculated, statistical significance for each mean intensity was calculated using analysis of variance (ANOVA) followed by Duncan's multiple comparison test at an alpha level of 5%. […] In the results provided herein, the Duncan's levels are reported as Levels A, B, and C.
Panelists were asked to assess the intensity of both capsaicin-like burning and Alcohol-like Burning sensations for Compounds 102 and 103 and Comparative Compound 1. Capsaicin-like burning is the sensation of warming or burning in the mouth, reminiscent of black pepper or hot sauce while alcohol-like burning is the sensation of warming or burning in the mouth, reminiscent of an alcohol burn. The combination of the intensity of these sensations was used to assess the total burning for the tested compounds. The average total burning after expectoration to 60 minutes was lower for both 5 μM Compound 102 and 5 μM Compound 103 as compared to 3 μM Comparative Compound 1.
The total intensity of trigeminal nerve feeling factors on the soft tissues of the mouth, including numbing, cooling (without breathing in), irritation, warming, burning, and tingling were determined for Compounds 102 and 103 and Comparative Compound 1. The average total trigeminal impact after expectoration to 60 minutes was lower for both 5 μM Compound 102 and 5 μM Compound 103 as compared to 3 μM Comparative Compound 1.
Icy cool in mouth is the sensation of coolness of the mouth, perceived with the mouth closed, not related to the temperature of the sample. Panelists were asked to assess the sensation of icy cool in mouth for Compound 104 and Compound 105 from the time immediately after expectoration of the sample through 60 minutes after expectoration. The average Icy Cool after expectoration to 60 minutes was higher for both 5 μM Compound 105 and 3 μM Compound 104 as compared to 3 μM Comparative Compound 1.
Cooling Breath In is the sensation of coolness of the mouth, when inhaling through the mouth, not related to the temperature of the sample. […]

SMILES | Cooling Breath In, Duncan's (5%) (3 μM solution) | Total Burning, Duncan's (5%) (5 μM solution) | Total Trigeminal Impact, Duncan's (5%) (5 μM solution) | also measured
Cc1ccc(OCC(=O)N(Cc2cccs2)c2ccn[nH]2)cc1 [Comparative Compound 1, reference compound] | B | – | – | Numbing, Duncan's (5%) (3 μM solution): B; Total Burning, Duncan's (5%) (3 μM solution): B; Total Trigeminal Impact, Duncan's (5%) (3 μM solution): B
O=C(COc1ccc(F)cc1)N(Cc1cccs1)c1cc[nH]n1 [Compound 102, 2-(4-flourophenoxy)-N-(1H-pyrazol-5-yl)-N-(thiophen-2-ylmethyl)acetamide] | – | A | A | Tingling, Duncan's (5%) (5 μM solution): A
COc1ccc(OCC(=O)N(Cc2cccs2)c2cc[nH]n2)cc1 [Compound 103, 2-(4-methoxyphenoxy)-N-(1H-pyrazol-3-yl)-N-(thiophen-2-ylmethyl)acetamide] | – | A | A | Numbing, Duncan's (5%) (5 μM solution): A
CCc1ccc(OCC(=O)N(Cc2cccs2)c2cc[nH]n2)cc1 [Compound 104, 2-(4-ethylphenoxy)-N-(1H-pyrazol-3-yl)-N-(thiophen-2-ylmethyl)acetamide] | C | – | – | –
Cc1ccc(OCC(=O)N(Cc2cccs2)c2cc[nH]n2)cc1C [Compound 105, 2-(3,4-dimethylphenoxy)-N-(1H-pyrazol-3-yl)-N-(thiophen-2-ylmethyl)acetamide] | – | – | – | Cooling Breath In, Duncan's (5%) (5 μM solution): C
